Source: article PMC3349726
These are yes or no findings as the source states them, for the method shown. For part of these data: Binding seen in cells or lysates may run through a third protein. Some binding calls cover weakened binding; strength is not graded here. Tags and fused reporters may be left off the sequences shown.

B1: AD-PP7 (full-length Protein Phosphatase 7 fused to the GAL4 activation domain) (enzyme, UniProt Q9FN02 1-413)
chain: METVPPSPITWPDGGALTNDWVHGLMSCFEWSSWNLPPSQLPSLLPVNVFDSLVLTAHKILHKERNCVHIDDLDSVSNVVVVGDIHGQLHDLLFLLKDTGFPCQNRCYVFNGDYVDRGAWGLETFLVLLSWKVLMPDRVYLLRGNHESKYCTSMYGFEKEVLTKYGDKGKHVYRKCLGCFEGLPLASIISGRVYTAHGGLFRSPVLPKRTTRGKKNRRVVLLEPEPSSMKLGTLDELMQARRSVLDPPWEGSNLIPGDVLWSDPSMTPGLSPNEQRGIGLLWGPDCTEDFLKKYELKLIIRSHEGPDAREKRTGLGGMDNGYTIDHNVESGKLITIFSAPDYPQFQATEERYKNKGAYIILQAPDFSDPQFHSFEAVKPRPKAHPYYDFENVIDSDDEMDKSAMDTNNEQPNS
B2: PP7-N50 (PP7 with the first 50 amino acids deleted, fused to the GAL4 activation domain) (domain or fragment, UniProt Q9FN02 51-413)
chain: DSLVLTAHKILHKERNCVHIDDLDSVSNVVVVGDIHGQLHDLLFLLKDTGFPCQNRCYVFNGDYVDRGAWGLETFLVLLSWKVLMPDRVYLLRGNHESKYCTSMYGFEKEVLTKYGDKGKHVYRKCLGCFEGLPLASIISGRVYTAHGGLFRSPVLPKRTTRGKKNRRVVLLEPEPSSMKLGTLDELMQARRSVLDPPWEGSNLIPGDVLWSDPSMTPGLSPNEQRGIGLLWGPDCTEDFLKKYELKLIIRSHEGPDAREKRTGLGGMDNGYTIDHNVESGKLITIFSAPDYPQFQATEERYKNKGAYIILQAPDFSDPQFHSFEAVKPRPKAHPYYDFENVIDSDDEMDKSAMDTNNEQPNS
B3: PP7-C70 (PP7 with the last 70 amino acids deleted, fused to the GAL4 activation domain) (domain or fragment, UniProt Q9FN02 1-343)
chain: METVPPSPITWPDGGALTNDWVHGLMSCFEWSSWNLPPSQLPSLLPVNVFDSLVLTAHKILHKERNCVHIDDLDSVSNVVVVGDIHGQLHDLLFLLKDTGFPCQNRCYVFNGDYVDRGAWGLETFLVLLSWKVLMPDRVYLLRGNHESKYCTSMYGFEKEVLTKYGDKGKHVYRKCLGCFEGLPLASIISGRVYTAHGGLFRSPVLPKRTTRGKKNRRVVLLEPEPSSMKLGTLDELMQARRSVLDPPWEGSNLIPGDVLWSDPSMTPGLSPNEQRGIGLLWGPDCTEDFLKKYELKLIIRSHEGPDAREKRTGLGGMDNGYTIDHNVESGKLITIFSAPDYP
B4: PP7m (PP7 with a D to A change at amino acid position 116, fused to the GAL4 activation domain) (enzyme, UniProt Q9FN02 1-413)
chain: METVPPSPITWPDGGALTNDWVHGLMSCFEWSSWNLPPSQLPSLLPVNVFDSLVLTAHKILHKERNCVHIDDLDSVSNVVVVGDIHGQLHDLLFLLKDTGFPCQNRCYVFNGDYVARGAWGLETFLVLLSWKVLMPDRVYLLRGNHESKYCTSMYGFEKEVLTKYGDKGKHVYRKCLGCFEGLPLASIISGRVYTAHGGLFRSPVLPKRTTRGKKNRRVVLLEPEPSSMKLGTLDELMQARRSVLDPPWEGSNLIPGDVLWSDPSMTPGLSPNEQRGIGLLWGPDCTEDFLKKYELKLIIRSHEGPDAREKRTGLGGMDNGYTIDHNVESGKLITIFSAPDYPQFQATEERYKNKGAYIILQAPDFSDPQFHSFEAVKPRPKAHPYYDFENVIDSDDEMDKSAMDTNNEQPNS
B5: PP7 produced in a TnT in vitro transcription and translation system (enzyme, UniProt Q9FN02 1-413)
chain: METVPPSPITWPDGGALTNDWVHGLMSCFEWSSWNLPPSQLPSLLPVNVFDSLVLTAHKILHKERNCVHIDDLDSVSNVVVVGDIHGQLHDLLFLLKDTGFPCQNRCYVFNGDYVDRGAWGLETFLVLLSWKVLMPDRVYLLRGNHESKYCTSMYGFEKEVLTKYGDKGKHVYRKCLGCFEGLPLASIISGRVYTAHGGLFRSPVLPKRTTRGKKNRRVVLLEPEPSSMKLGTLDELMQARRSVLDPPWEGSNLIPGDVLWSDPSMTPGLSPNEQRGIGLLWGPDCTEDFLKKYELKLIIRSHEGPDAREKRTGLGGMDNGYTIDHNVESGKLITIFSAPDYPQFQATEERYKNKGAYIILQAPDFSDPQFHSFEAVKPRPKAHPYYDFENVIDSDDEMDKSAMDTNNEQPNS
modifications: radiolabeled with 35S-methionine
B6: PP7:Myc (enzyme, UniProt Q9FN02 1-413)
chain: METVPPSPITWPDGGALTNDWVHGLMSCFEWSSWNLPPSQLPSLLPVNVFDSLVLTAHKILHKERNCVHIDDLDSVSNVVVVGDIHGQLHDLLFLLKDTGFPCQNRCYVFNGDYVDRGAWGLETFLVLLSWKVLMPDRVYLLRGNHESKYCTSMYGFEKEVLTKYGDKGKHVYRKCLGCFEGLPLASIISGRVYTAHGGLFRSPVLPKRTTRGKKNRRVVLLEPEPSSMKLGTLDELMQARRSVLDPPWEGSNLIPGDVLWSDPSMTPGLSPNEQRGIGLLWGPDCTEDFLKKYELKLIIRSHEGPDAREKRTGLGGMDNGYTIDHNVESGKLITIFSAPDYPQFQATEERYKNKGAYIILQAPDFSDPQFHSFEAVKPRPKAHPYYDFENVIDSDDEMDKSAMDTNNEQPNS

Assays:
[1] = target: T1, BD-HRB1 (full-length Hypersensitive to Red and Blue 1 fused to the GAL4 DNA binding domain) (Arabidopsis thaliana) (UniProt Q9FJ17); experiment: two-hybrid; quantitative yeast two-hybrid assay (beta-galactosidase activity); baits in pGBKT7, preys in pGADT7; transformants selected on SD medium lacking Trp and Leu
T1 sequence: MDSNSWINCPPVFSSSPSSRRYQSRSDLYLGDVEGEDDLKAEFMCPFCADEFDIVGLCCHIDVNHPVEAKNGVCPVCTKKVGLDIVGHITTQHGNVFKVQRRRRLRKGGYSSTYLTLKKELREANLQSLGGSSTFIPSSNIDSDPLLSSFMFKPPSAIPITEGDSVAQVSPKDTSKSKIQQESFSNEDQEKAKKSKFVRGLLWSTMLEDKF

[2] = target: T2, GBD:HRB1 (HRB1 tagged with the GAL4 DNA binding domain, produced in E. coli) (Arabidopsis thaliana) (UniProt Q9FJ17); experiment: pull-down; in vitro immuno-precipitation: GBD or GBD:HRB1 from E. coli total extract captured with anti-GAL4 BD antibody on protein A/G agarose and washed, then incubated with in vitro translated 35S-labelled PP7 at 4 C for 2 hours; 1x PBS pH 7.5, 0.1% NP40; autoradiography; only the target …
T2 sequence: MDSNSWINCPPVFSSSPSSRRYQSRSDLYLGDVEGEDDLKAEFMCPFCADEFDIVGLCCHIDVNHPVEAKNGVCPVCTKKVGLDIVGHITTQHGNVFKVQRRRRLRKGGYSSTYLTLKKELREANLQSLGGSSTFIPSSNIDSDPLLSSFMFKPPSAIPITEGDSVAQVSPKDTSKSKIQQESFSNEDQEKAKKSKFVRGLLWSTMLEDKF

[3] = target: T3, HRB1:GFP:His (Arabidopsis thaliana) (UniProt Q9FJ17); experiment: pull-down; His affinity-precipitation on nickel-agarose beads from extracts of co-infiltrated Nicotiana benthamiana leaves, in the dark or under 4.93 umol/m2/s blue light for 2 hours; 50 mM Tris-Cl pH 7.5, 150 mM NaCl, 10% glycerol, 0.5% NP40, 10 mM imidazole; PP7 detected with an anti-Myc antibody
T3 sequence: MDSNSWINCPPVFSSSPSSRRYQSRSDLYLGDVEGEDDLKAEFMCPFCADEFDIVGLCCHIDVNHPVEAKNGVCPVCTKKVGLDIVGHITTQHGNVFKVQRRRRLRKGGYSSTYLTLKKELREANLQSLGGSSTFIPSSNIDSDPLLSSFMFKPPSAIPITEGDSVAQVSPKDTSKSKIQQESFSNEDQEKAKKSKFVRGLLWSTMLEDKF

| Binder | binding [1] | other results |
| --- | --- | --- |
| B1 | binds |  |
| B2 | binds |  |
| B3 | binds |  |
| B4 | binds |  |
| B5 |  | binding [2]: binds |
| B6 |  | binding [3]: binds |
